PubChem BioAssay AID652243 – Drosophila RNAi Screening Center | 2013
Assay: 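Knock-downs that decrease or increase androgen receptor reporter signal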 (primary screen). Cells: Drosophila S2R+ cells. Reagents: long dsRNA against Drosophila genes. Timing: 72 h (48 h, then 24 h hormone). Treatment: synthetic androgen R1881 at 10 nM for 24 h. Read-out: 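Firefly light from an androgen-responsive reporter and Renilla control light per well, raw and unnormalised, for each of two replicates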. Scale: firefly reporter light: higher = more light from androgen-responsive reporter; Renilla control light: higher = more constitutive control signal (cell number, transfection). Rule for the call: 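Across duplicate plates, a knock-down whose log firefly/Renilla ratio shifted a set fold down or up from the GFP/LacZ control mean was a hit; the downward cut appears as both 1.5 and 3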. Calls: active = hit: reporter lowered or raised; inactive = no hit.
The screen tested about 24,000 reagents; this is a random part of those with a known target gene and a result. In the full data, 246 (1%) were called active. 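Plates not normalised; calls are printed but the firefly/Renilla ratio behind them is not deposited; fold cut for lowering reported inconsistently.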 Raw values are not corrected between plates. Unmarked entries are inactive. Not stated in the record: the amount of reagent.

The opening 2 entries as a preview:
{"target gene":"bab1","dsRNA":"DRSC08709","firefly reporter light, replicate 1":93792,"firefly reporter light, replicate 2":94269,"Renilla control light, replicate 1":1.68e6,"Renilla control light, replicate 2":1.96e6}
{"target gene":"bab1","dsRNA":"DRSC21882","firefly reporter light, replicate 1":4.79e5,"firefly reporter light, replicate 2":4.10e5,"Renilla control light, replicate 1":8.36e5,"Renilla control light, replicate 2":1.03e6}

Main list, from the first entry:
{"target gene":"bab1","dsRNA":"DRSC08709","firefly reporter light, replicate 1":93792,"firefly reporter light, replicate 2":94269,"Renilla control light, replicate 1":1.68e6,"Renilla control light, replicate 2":1.96e6}
{"target gene":"bab1","dsRNA":"DRSC21882","firefly reporter light, replicate 1":4.79e5,"firefly reporter light, replicate 2":4.10e5,"Renilla control light, replicate 1":8.36e5,"Renilla control light, replicate 2":1.03e6}
{"target gene":"bab1","dsRNA":"DRSC25457","firefly reporter light, replicate 1":1.05e6,"firefly reporter light, replicate 2":1.33e6,"Renilla control light, replicate 1":1.08e6,"Renilla control light, replicate 2":1.01e6}
{"target gene":"sub","dsRNA":"DRSC06125","firefly reporter light, replicate 1":9.26e5,"firefly reporter light, replicate 2":9.02e5,"Renilla control light, replicate 1":1.53e6,"Renilla control light, replicate 2":1.76e6}
{"target gene":"opa","dsRNA":"DRSC12384","firefly reporter light, replicate 1":14504,"firefly reporter light, replicate 2":17410,"Renilla control light, replicate 1":2.49e5,"Renilla control light, replicate 2":2.75e5}
{"target gene":"opa","dsRNA":"DRSC23152","firefly reporter light, replicate 1":3.36e5,"firefly reporter light, replicate 2":6.28e5,"Renilla control light, replicate 1":9.89e5,"Renilla control light, replicate 2":1.38e6}
{"target gene":"opa","dsRNA":"DRSC26411","firefly reporter light, replicate 1":4.89e5,"firefly reporter light, replicate 2":3.27e5,"Renilla control light, replicate 1":7.08e5,"Renilla control light, replicate 2":4.90e5}
{"target gene":"CG13220","dsRNA":"DRSC06342","firefly reporter light, replicate 1":2.29e5,"firefly reporter light, replicate 2":1.86e5,"Renilla control light, replicate 1":1.31e6,"Renilla control light, replicate 2":1.14e6}
{"target gene":"CG7766","dsRNA":"DRSC18424","firefly reporter light, replicate 1":1.22e5,"firefly reporter light, replicate 2":1.26e5,"Renilla control light, replicate 1":6.54e5,"Renilla control light, replicate 2":6.50e5}
{"target gene":"mus101","dsRNA":"DRSC19388","firefly reporter light, replicate 1":5.50e5,"firefly reporter light, replicate 2":6.27e5,"Renilla control light, replicate 1":2.42e6,"Renilla control light, replicate 2":3.66e6}
{"target gene":"CG15484","dsRNA":"DRSC02494","firefly reporter light, replicate 1":3.61e5,"firefly reporter light, replicate 2":3.36e5,"Renilla control light, replicate 1":3.12e6,"Renilla control light, replicate 2":3.06e6}
{"target gene":"CG15484","dsRNA":"DRSC22836","firefly reporter light, replicate 1":4.42e5,"firefly reporter light, replicate 2":8.48e5,"Renilla control light, replicate 1":1.31e6,"Renilla control light, replicate 2":2.34e6}
{"target gene":"Or22c","dsRNA":"DRSC00766","firefly reporter light, replicate 1":64997,"firefly reporter light, replicate 2":68210,"Renilla control light, replicate 1":5.85e5,"Renilla control light, replicate 2":5.72e5}
{"target gene":"Or22c","dsRNA":"DRSC26292","firefly reporter light, replicate 1":3.18e5,"firefly reporter light, replicate 2":2.86e5,"Renilla control light, replicate 1":7.89e5,"Renilla control light, replicate 2":6.76e5}
{"target gene":"CG15553","dsRNA":"DRSC15091","firefly reporter light, replicate 1":2.29e5,"firefly reporter light, replicate 2":2.56e5,"Renilla control light, replicate 1":1.80e6,"Renilla control light, replicate 2":3.17e6}
{"target gene":"CG31525","dsRNA":"DRSC12004","firefly reporter light, replicate 1":1.88e5,"firefly reporter light, replicate 2":1.69e5,"Renilla control light, replicate 1":4.75e5,"Renilla control light, replicate 2":6.36e5}
{"target gene":"Ir47a","dsRNA":"DRSC06215","firefly reporter light, replicate 1":2.61e5,"firefly reporter light, replicate 2":2.10e5,"Renilla control light, replicate 1":1.73e6,"Renilla control light, replicate 2":1.41e6}
{"target gene":"l(2)k05911","dsRNA":"DRSC02523","firefly reporter light, replicate 1":6.51e5,"firefly reporter light, replicate 2":5.39e5,"Renilla control light, replicate 1":3.49e6,"Renilla control light, replicate 2":4.20e6}
{"target gene":"CG13426","dsRNA":"DRSC06388","firefly reporter light, replicate 1":1.25e5,"firefly reporter light, replicate 2":1.64e5,"Renilla control light, replicate 1":1.73e6,"Renilla control light, replicate 2":2.12e6}
{"target gene":"CG10589","dsRNA":"DRSC11629","firefly reporter light, replicate 1":2.16e5,"firefly reporter light, replicate 2":2.12e5,"Renilla control light, replicate 1":2.10e6,"Renilla control light, replicate 2":1.91e6}
{"target gene":"CG11899","dsRNA":"DRSC16656","firefly reporter light, replicate 1":1.85e5,"firefly reporter light, replicate 2":1.50e5,"Renilla control light, replicate 1":1.66e6,"Renilla control light, replicate 2":2.84e6}
